Chains of the proteins cited; added tags and fusions are not shown. Lines headed by an entry give the natural chain unless they say otherwise; changes in a name come on top.
UniProt Q9UNA4: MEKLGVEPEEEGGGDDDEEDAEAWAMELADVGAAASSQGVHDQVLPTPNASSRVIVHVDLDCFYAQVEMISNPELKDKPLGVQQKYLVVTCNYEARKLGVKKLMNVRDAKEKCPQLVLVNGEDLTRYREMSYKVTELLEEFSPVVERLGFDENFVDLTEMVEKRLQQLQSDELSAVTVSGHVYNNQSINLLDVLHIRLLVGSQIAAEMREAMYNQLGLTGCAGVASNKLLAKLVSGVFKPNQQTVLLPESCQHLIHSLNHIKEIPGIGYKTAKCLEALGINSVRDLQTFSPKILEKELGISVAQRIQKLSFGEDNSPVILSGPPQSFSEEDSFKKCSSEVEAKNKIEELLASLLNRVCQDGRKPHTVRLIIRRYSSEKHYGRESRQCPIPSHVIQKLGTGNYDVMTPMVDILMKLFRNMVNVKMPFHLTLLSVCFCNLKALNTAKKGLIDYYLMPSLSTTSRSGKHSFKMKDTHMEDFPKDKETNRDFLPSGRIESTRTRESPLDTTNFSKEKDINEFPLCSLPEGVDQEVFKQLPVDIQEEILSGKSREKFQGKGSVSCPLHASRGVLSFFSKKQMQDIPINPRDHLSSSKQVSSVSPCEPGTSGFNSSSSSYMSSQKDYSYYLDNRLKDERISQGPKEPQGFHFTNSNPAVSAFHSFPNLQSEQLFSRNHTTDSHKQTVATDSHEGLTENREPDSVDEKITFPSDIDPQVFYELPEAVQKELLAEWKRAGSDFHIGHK

Hit rate of the full screen: of about 390,000 compounds, about 4,000 (1%) were called active. Inconclusive results, whose numbers are uncertain, are shown with a selection of clear calls. The call rests on the fitted dose curve; in most records, active means well fitted inhibition curve with a large enough effect; inconclusive means small, poorly fitted or top-dose-only effect, or another doubt; inactive means no such curve, though single readings can be large or run the other way. Potencies of inconclusive entries are doubtful fits and often do not repeat.
Each compound was assayed against DNA polymerase iota (Homo sapiens) (UniProt Q9UNA4) (assay: qHTS for Inhibitors of Polymerase Iota). Conditions: Pol iota fluorescent replication assay, 10 min; series mostly up to 115 µM.
Outline: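 Pol iota at 10 nM preincubated 15 min with compounds at room temperature; reaction started with fluorescent substrate, 50 nM final. Fluorescence read kinetically at 0 and 10 min; buffer-only wells as negative control.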
For `CC(=O)Nc1ccc(S(=O)(=O)NCC2CCC(C(=O)N3CCN(c4ccccn4)CC3)CC2)cc1` (centres undefined), the Potency was inconclusive: 39.8 µM [inhibitor, single point]. For `Cc1cc(NC(=O)CN2C(=O)CC(c3ccco3)Sc3ccccc32)no1` (centres undefined), the Potency was inconclusive: 22.4 µM [inhibitor, full curve, poor fit]. In the case of `O=S(=O)(Nc1nc2ccc(S(=O)(=O)N3CCCC3)cc2s1)c1ccc(F)cc1`, the Potency is reported as inconclusive: 7.08 µM [inhibitor, partial curve, poor fit]. With `CCOc1ccccc1NC(=O)CN1C(=O)C(=O)c2ccccc21` the Potency was “inactive”. With `CSc1ccccc1NC(=O)COC(=O)/C=C/c1ccco1` the Potency was inconclusive: 28.2 µM [inhibitor, single point]. With `Cn1c2ccc(F)cc2c2nnc(SCCN3CCCCC3)nc21` the Potency was inconclusive: 63.1 µM [inhibitor, partial curve, poor fit]. For `Cc1ccccc1NC1=C/C(=N\S(=O)(=O)c2cccs2)c2ccccc2C1=O`, the Potency was active: 3.16 µM. `C#CCOc1ccccc1CNC1CCN(Cc2ccccc2)CC1` was tested, and the Potency was inconclusive: 28.2 µM [inhibitor, partial curve, poor fit]. With `CCOc1cc(C2c3c(oc4ccccc4c3=O)C(=O)N2Cc2ccccc2Cl)ccc1O` (centres undefined) the Potency was inconclusive: 39.8 µM [inhibitor, partial curve, poor fit]. In the case of `O=C(N/C=C/c1ccco1)Nc1cccc(Cl)c1`, the Potency is reported as inconclusive: 44.7 µM [inhibitor, partial curve]. In the case of `COc1ccc(Cn2c(-c3ccco3)nc3c(c(=O)c4ccccc4n3C)c2=O)cc1`, the Potency is reported as “inactive”. `NC(=O)[C@H]1CC2(CC(c3cccc(NC(=O)COc4ccc(Cl)cc4)c3)=NO2)CN1C(=O)Cc1ccc([N+](=O)[O-])cc1` (some centres undefined) was tested, and the Potency was inconclusive: 3.55 µM [inhibitor, full curve]. In the case of `CCOc1ccc(N2C(=O)CC(N3CC(C)OC(C)C3)C2=O)cc1` (centres undefined), the Potency is reported as inconclusive: 39.8 µM [inhibitor, single point]. For `COc1ccc(C2CC(=O)c3c([nH]c(C(=O)OCCOc4ccccc4)c3C)C2)cc1OC` (centres undefined), the Potency was inconclusive: 5.01 µM [inhibitor, full curve, poor fit]. For `Cc1onc(-c2c(Cl)cccc2Cl)c1C(=O)N[C@@H]1C(=O)N2[C@@H]1SC(C)(C)[C@@H]2C(=O)O`, the Potency was “inactive”. In the case of `Cc1ccc(Nc2ncnc3nc[nH]c23)cc1Cl`, the Potency is reported as inconclusive: 100 µM [inhibitor, single point]. In the case of `O=C(c1c(F)cccc1F)N(C1CCCCC1)C1CCCCC1`, the Potency is reported as “inactive”. `COc1ccc(CC(=O)NO)cc1OC` was tested, and the Potency was “inactive”. In the case of `N#Cc1cccc(C(=O)Nc2ccc(S(=O)(=O)Nc3nccs3)cc2)c1`, the Potency is reported as “inactive”. In the case of `CS(=O)(=O)N1CCc2cc(C(=O)Nc3ccccc3)ccc21`, the Potency is reported as inconclusive: 89.1 µM [inhibitor, single point]. In the case of `CC(C)c1nnc(NC(=O)c2nc(S(=O)(=O)Cc3ccccc3)ncc2Cl)s1`, the Potency is reported as inconclusive: 25.1 µM [inhibitor, partial curve]. `CC1(C)Oc2ccc(C#N)cc2[C@@H](N2CCCC2=O)[C@@H]1O` was tested, and the Potency was “inactive”. For `COc1ccccc1C/C(N)=N/OC(=O)COc1cc(C)cc(C)c1C`, the Potency was inconclusive: 44.7 µM [inhibitor, full curve, poor fit]. `CCCCCn1c(N)c(C#N)c2nc3ccccc3nc21` was tested, and the Potency was inconclusive: 28.2 µM [inhibitor, single point]. With `O=C(NC(=S)Nc1nc2c(ccc3ccccc32)s1)c1cccs1` the Potency was inconclusive: 126 µM [inhibitor, single point]. With `C#CCOCCOCCOCCNc1nc(N2CCN(C(=O)[C@H]([C@@H](C)CC)n3cc(CCCN=C(N)N)nn3)CC2)nc(N2CCN(C(=O)[C@H](CCCCN)n3cc(CC(C)O)nn3)CC2)n1` (some centres undefined) the Potency was inconclusive: 3.16 µM [inhibitor, partial curve, poor fit]. `O=C(CSc1nc2sc3c(c2c(=O)n1-c1ccccc1)CCCC3)NCc1ccco1` was tested, and the Potency was inconclusive: 17.8 µM [inhibitor, full curve, poor fit]. With `CCOC(=O)c1scc(-c2ccc(C)cc2)c1S(=O)(=O)Nc1ccc(F)c(F)c1` the Potency was inconclusive: 79.4 µM [inhibitor, partial curve]. With `CCCCC(=O)Nc1cccc(-c2cn3ccccc3n2)c1` the Potency was inconclusive: 70.8 µM [inhibitor, partial curve, poor fit]. `CN1C(=O)c2ccccc2Sc2ccc(NC(=O)COc3ccc(Cl)cc3)cc21` was tested, and the Potency was “inactive”. With `Cc1ccc(S(=O)(=O)Nc2cccc(-c3cn4ccsc4n3)c2)cc1` the Potency was inconclusive: 28.2 µM [inhibitor, partial curve, poor fit]. In the case of `O=S(=O)(CC(CN1CCCC1)N1CCCC1)c1ccc2ccccc2c1` (centres undefined), the Potency is reported as inconclusive: 14.1 µM [inhibitor, partial curve, poor fit]. With `COc1cccc(OC)c1Cn1nnc2c(=O)[nH]c(C3CCN(C(=O)c4ccccc4)CC3)nc21` the Potency was “inactive”. For `Cc1ccc2c(c1C)-c1c(ccc(C)c1C)C(=O)C2=O`, the Potency was active: 25.1 µM. `COc1ccc(/C=C/C(=O)NC(=S)Nc2ccc(S(=O)(=O)Nc3nccnc3OC)cc2)cc1` was tested, and the Potency was inconclusive: 31.6 µM [inhibitor, single point]. In the case of `N#CCc1nn2c3c(cnc2c1C#N)C(=O)CCC3`, the Potency is reported as inconclusive: 0.708 µM [inhibitor, full curve, poor fit]. For `CCNC(=S)N1CCN(C(=O)c2ccco2)CC1`, the Potency was inconclusive: 89.1 µM [inhibitor, single point]. `Cc1ccc(C2C(/C=C3/SC(=S)NC3=O)=C(c3cccs3)Oc3ccccc32)cc1` (centres undefined) was tested, and the Potency was inconclusive: 28.2 µM [inhibitor, full curve, poor fit]. In the case of `O=C1NC(=O)/C(=C/c2cccc3ccccc23)S1`, the Potency is reported as inconclusive: 25.1 µM [inhibitor, single point]. `C/C=C(\C)CN1CCCC(N(C)CCc2ccc(OC)c(OC)c2)C1` (centres undefined) was tested, and the Potency was “inactive”. For `CCCC(=O)c1ccc(OCc2cn(CC(=O)c3ccc(O)cc3)nn2)cc1`, the Potency was inconclusive: 12.6 µM [inhibitor, partial curve, poor fit]. `CCOc1ccc(-c2nnc(N)s2)cc1` was tested, and the Potency was inconclusive: 112 µM [inhibitor, partial curve, poor fit]. For `CC(C)Cc1ccc(C(C)CC2=CCC(CN(C)C)C2=O)cc1` (centres undefined), the Potency was inconclusive: 28.2 µM [inhibitor, partial curve]. With `O=C(O)CCN1C(=O)/C(=C/c2ccc(-c3nc4ccccc4s3)o2)SC1=S` the Potency was inconclusive: 3.16 µM [inhibitor, full curve, poor fit]. `Cc1ccc(C(=O)NC(=S)Nc2ccccc2C(F)(F)F)cc1C` was tested, and the Potency was “inactive”. In the case of `CCN1C(=O)[C@H]2[C@@H](c3ccc(-c4cccc(Cl)c4)c(OC)c3)N[C@@](Cc3ccccc3)(C(=O)OC)[C@H]2C1=O`, the Potency is reported as inconclusive: 28.2 µM [inhibitor, partial curve, poor fit]. `CCCCc1c(C)[nH]c2c(OC)cccc2c1=S` was tested, and the Potency was inconclusive: 44.7 µM [inhibitor, partial curve, poor fit]. In the case of `COc1ccc(N(CC(=O)N2CCN(c3cccc(OC)c3)CC2)S(=O)(=O)c2c(C)noc2C)cc1`, the Potency is reported as inconclusive: 89.1 µM [inhibitor, single point]. In the case of `O=C1c2ccccc2C(=O)N1/N=C/c1ccc(O)c(O)c1`, the Potency is reported as inconclusive: 12.6 µM [inhibitor, full curve]. For `Nc1nc(N)c(N=Nc2ccccc2)c(=O)[nH]1`, the Potency was “inactive”. `CCOC(=O)C1=C(CS(=O)(=O)c2ccc(C)c(C)c2)NC(=O)NC1c1ccccc1OCC` (centres undefined) was tested, and the Potency was “inactive”. In the case of `COCc1c(C(=O)N2CCN(Cc3ccc4c(c3)OCO4)CC2)oc2ccccc12`, the Potency is reported as inconclusive: 89.1 µM [inhibitor, single point]. `O=C(N/N=C/c1c[nH]c2ccc(Br)cc12)c1ccncc1` was tested, and the Potency was active: 56.2 µM. `COc1ccc(/C(O)=C/C(=O)C(=O)NNC(=O)c2ccccc2)cc1` was tested, and the Potency was inconclusive: 56.2 µM [inhibitor, partial curve, poor fit]. With `CCc1ccc(CNC(=O)Cc2c(C(=O)O)c(C)cn2C)cc1` the Potency was “inactive”. For `CN(CC(=O)NCc1ccc(F)cc1)S(=O)(=O)c1ccc2c(c1)c(=O)n(C)c(=O)n2C`, the Potency was inconclusive: 89.1 µM [inhibitor, single point]. `COc1ccc2sc(N3C(=O)C4CC=C(C)CC4C3=O)nc2c1` (centres undefined) was tested, and the Potency was inconclusive: 112 µM [inhibitor, single point]. With `Cc1ccc(Cl)cc1NC(=O)/C(C#N)=C\c1cn(Cc2ccc(F)cc2)c2ccccc12` the Potency was active: 89.1 µM. For `CCN(CC)CCN(C(=O)c1c(F)cccc1F)c1nc2cc(C)cc(C)c2s1`, the Potency was inconclusive: 79.4 µM [inhibitor, partial curve, poor fit]. For `C[N+](C)(C)CCCCCC[N+](C)(C)C`, the Potency was inconclusive: 11.2 µM [inhibitor, partial curve, poor fit]. With `COc1cccc(Nc2nc(-c3sc(NC(=O)c4ccco4)nc3C)cs2)c1` the Potency was inconclusive: 14.1 µM [inhibitor, full curve, poor fit]. With `CCNc1nc(CC)nc2c1oc1ccccc12` the Potency was inconclusive: 14.1 µM [inhibitor, partial curve, poor fit]. With `COc1ccc(/C=C2\CCCc3c2nc2ccc(C)cc2c3C(=O)O)cc1O` the Potency was inconclusive: 20 µM [inhibitor, partial curve, poor fit]. `COc1ccc(CN(C)C(=O)Cn2cc(C)c(=O)[nH]c2=O)cc1OC` was tested, and the Potency was inconclusive: 89.1 µM [inhibitor, single point].
Potency means the concentration at half of the fitted maximal effect.
